From paper PMC6895603 come the findings set out here.

Amino acid sequences for entries named in this document (tags omitted). A change or cut given only in a name is not applied to a line headed by its entry.
UniProt Q13936: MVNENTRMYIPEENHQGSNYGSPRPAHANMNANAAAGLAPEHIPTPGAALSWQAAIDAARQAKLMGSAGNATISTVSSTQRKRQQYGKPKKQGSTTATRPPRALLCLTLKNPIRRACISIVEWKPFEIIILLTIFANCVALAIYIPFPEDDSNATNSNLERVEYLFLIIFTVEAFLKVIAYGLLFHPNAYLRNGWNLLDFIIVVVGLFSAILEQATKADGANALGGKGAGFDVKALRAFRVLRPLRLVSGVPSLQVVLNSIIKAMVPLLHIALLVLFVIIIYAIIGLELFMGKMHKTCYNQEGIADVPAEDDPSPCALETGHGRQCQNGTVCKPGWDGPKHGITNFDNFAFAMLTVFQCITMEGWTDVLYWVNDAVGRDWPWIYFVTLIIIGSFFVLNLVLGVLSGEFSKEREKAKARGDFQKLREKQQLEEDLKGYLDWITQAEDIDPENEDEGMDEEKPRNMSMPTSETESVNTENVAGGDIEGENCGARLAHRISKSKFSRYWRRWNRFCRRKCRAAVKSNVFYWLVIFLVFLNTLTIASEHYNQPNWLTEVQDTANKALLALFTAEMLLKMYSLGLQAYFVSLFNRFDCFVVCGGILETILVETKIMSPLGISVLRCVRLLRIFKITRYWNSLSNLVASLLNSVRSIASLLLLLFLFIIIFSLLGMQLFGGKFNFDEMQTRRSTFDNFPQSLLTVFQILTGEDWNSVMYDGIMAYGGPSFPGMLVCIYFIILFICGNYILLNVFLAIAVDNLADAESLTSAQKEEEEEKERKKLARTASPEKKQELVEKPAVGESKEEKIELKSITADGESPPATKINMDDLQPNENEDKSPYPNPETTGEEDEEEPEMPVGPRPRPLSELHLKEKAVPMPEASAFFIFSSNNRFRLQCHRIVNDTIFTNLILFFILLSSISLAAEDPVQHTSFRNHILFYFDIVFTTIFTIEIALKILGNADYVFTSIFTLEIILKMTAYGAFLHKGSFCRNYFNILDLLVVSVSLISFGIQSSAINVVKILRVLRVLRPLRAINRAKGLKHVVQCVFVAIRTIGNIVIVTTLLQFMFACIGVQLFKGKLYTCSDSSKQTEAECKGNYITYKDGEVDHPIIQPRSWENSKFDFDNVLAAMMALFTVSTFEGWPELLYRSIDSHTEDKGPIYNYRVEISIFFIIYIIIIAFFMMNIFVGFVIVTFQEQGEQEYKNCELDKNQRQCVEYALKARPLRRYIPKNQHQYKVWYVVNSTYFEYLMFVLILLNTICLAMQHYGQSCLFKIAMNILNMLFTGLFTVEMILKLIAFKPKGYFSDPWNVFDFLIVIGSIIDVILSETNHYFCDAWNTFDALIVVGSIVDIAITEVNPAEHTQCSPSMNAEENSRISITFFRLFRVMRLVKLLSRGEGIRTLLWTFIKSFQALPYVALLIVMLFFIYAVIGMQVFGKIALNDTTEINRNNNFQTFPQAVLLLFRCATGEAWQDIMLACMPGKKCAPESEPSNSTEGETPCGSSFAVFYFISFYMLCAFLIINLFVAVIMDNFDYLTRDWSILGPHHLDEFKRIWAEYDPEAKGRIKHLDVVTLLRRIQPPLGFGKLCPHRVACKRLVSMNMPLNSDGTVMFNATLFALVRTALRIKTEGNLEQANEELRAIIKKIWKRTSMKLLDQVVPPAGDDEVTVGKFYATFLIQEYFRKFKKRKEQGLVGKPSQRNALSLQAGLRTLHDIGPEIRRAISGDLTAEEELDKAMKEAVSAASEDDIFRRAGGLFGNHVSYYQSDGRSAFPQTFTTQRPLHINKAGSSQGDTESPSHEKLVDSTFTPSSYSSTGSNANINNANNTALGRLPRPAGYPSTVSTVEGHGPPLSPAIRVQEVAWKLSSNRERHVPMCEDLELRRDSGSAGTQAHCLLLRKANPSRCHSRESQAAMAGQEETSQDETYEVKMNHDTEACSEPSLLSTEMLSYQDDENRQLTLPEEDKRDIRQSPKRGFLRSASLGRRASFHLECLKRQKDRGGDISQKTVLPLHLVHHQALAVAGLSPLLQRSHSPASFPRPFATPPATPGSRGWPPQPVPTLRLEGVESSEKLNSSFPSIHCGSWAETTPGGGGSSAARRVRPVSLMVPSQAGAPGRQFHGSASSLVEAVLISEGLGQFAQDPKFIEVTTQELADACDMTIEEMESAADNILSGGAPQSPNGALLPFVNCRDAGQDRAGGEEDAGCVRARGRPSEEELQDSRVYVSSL
UniProt P35609: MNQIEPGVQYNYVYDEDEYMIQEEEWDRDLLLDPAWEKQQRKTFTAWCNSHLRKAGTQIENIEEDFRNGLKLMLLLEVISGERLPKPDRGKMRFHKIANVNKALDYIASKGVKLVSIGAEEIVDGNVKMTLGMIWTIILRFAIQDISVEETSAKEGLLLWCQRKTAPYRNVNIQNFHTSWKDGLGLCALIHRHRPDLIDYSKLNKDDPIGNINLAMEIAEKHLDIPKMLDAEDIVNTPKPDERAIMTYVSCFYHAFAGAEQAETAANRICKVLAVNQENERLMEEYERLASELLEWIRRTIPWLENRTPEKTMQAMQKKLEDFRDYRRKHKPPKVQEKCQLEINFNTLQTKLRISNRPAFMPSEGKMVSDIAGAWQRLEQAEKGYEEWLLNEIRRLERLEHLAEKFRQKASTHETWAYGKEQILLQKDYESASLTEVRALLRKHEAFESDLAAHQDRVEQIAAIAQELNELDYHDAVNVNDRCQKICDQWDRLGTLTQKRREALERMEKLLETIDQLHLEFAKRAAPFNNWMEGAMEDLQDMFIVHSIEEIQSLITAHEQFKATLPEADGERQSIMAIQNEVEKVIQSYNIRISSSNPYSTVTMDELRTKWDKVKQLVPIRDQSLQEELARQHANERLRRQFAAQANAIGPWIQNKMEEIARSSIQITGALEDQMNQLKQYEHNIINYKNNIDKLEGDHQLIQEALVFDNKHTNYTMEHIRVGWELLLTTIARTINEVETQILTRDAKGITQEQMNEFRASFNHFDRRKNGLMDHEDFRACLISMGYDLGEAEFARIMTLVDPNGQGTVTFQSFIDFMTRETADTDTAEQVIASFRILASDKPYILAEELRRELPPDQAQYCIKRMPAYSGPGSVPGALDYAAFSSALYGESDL

Results are given in words; binding and its absence hold for the method and conditions named. Binding seen in cells or lysates may run through a third protein. Some binding calls cover weakened binding; strength is not graded here.

Experiment [1] has as its target Cavα1.2-NanoLuc (pore unit of the L-type Ca2+ channel) (UniProt Q13936). The experiment in a line: FRET or BRET; NanoBRET in live HL-1 cells; Cavα1.2-NanoLuc:ACTN2-Halo (WT or mutant) transfected 1:100; with co-transfected Cavβ2; 100 nmol/l NanoBRET 618 ligand 48 h after transfection, read 5 h later. (BRET reads energy transfer from a luciferase to a nearby fluorophore.)

Experiment [2] shares this target. The experiment in a line: FRET or BRET; NanoBRET in live HL-1 cells; Cavα1.2-NanoLuc:ACTN2-Halo (WT or mutant) transfected 1:100; no Cavβ2 added; 100 nmol/l NanoBRET 618 ligand 48 h after transfection, read 5 h later.

On to “ACTN2-Halo mutant (α-actinin 2 p.T247M) (from UniProt P35609 1-894)”, for which the binding result in experiment [1] and in experiment [2] was “binds” throughout.

Turning to “ACTN2-Halo WT (α-actinin 2, wild type) (from UniProt P35609 1-894)”, the binding entry in experiment [1] and in experiment [2] was “binds” each time.
